Laboratory results reported in patent US8202894B2, “Microbiocides” (Syngenta Crop Protection LLC, priority 2007, dated 2012).
Some results were stated once for a whole list of compounds, not compound by compound.

Assays:
Type in all cases: in vivo
Pvrenophora teres = assay: Action against Pvrenophora teres/barley (net blotch on barley); conditions: barley plants cv. Express, 0.02% active ingredient spray, inoculated two days after application, assessed 4 days after inoculation
Puccinia recondita = assay: Action against Puccinia recondita/wheat (brownrust on wheat); conditions: wheat plants cv. Arina, 0.02% active ingredient spray, inoculated one day after application, assessed 10 days after inoculation
Septoria tritici = assay: Action against Septoria tritici/wheat (Septoria leaf spot on wheat); conditions: wheat plants cv. Riband, 0.02% active ingredient spray, inoculated one day after application, assessed 18 days after inoculation
Uncinula Necator = assay: Action against Uncinula necator/grape (powdery mildew on grape); conditions: grape seedlings cv. Gutedel, 0.02% active ingredient spray, inoculated one day after application, assessed after 7 days at 26° C. and 60% r.h.
Alternaria solani = assay: Action against Alternaria solani/tomato (early blight on tomatoes); conditions: tomato plants cv. Roter Gnom, 0.02% active ingredient spray, inoculated two days after application, assessed after 3 days at 20° C. and 95% r.h.
Botrytis cinerea = assay: Action against Botrytis cinerea/tomato (Botrytis on tomatoes); conditions: tomato plants cv. Roter Gnom, 0.02% active ingredient spray, inoculated two days after application, assessed after 4 days at 20° C. and 95% r.h.

Measured: infestation (disease incidence)

COC(c1sc2ccc(Cl)cc2c1Cl)C(C)NC(=O)c1cn(C)nc1C(F)F (stereo not drawn) [Compound 22.2, 3-difluoromethyl-1-methyl-1H-pyrazole-4-carboxylic acid[2-(3,5-dichlorobenzo[b]thiophen-2-yl)-2-methoxy-1-methylethyl]amide]
< 20%: all assays above

CCOC(c1sc2ccc(Cl)cc2c1Cl)C(C)NC(=O)c1cn(C)nc1C(F)F (stereo not drawn) [Compound 22.4]
< 20%: all assays above

COC(CNC(=O)c1cn(C)nc1C(F)F)c1sc2cc(Cl)ccc2c1Cl (stereo not drawn) [Compound 22.33]
< 20%: Pvrenophora teres | Septoria tritici | Uncinula Necator | Botrytis cinerea

COC(c1sc2cc(Cl)ccc2c1Cl)C(C)NC(=O)c1cn(C)nc1C(F)F (stereo not drawn) [Compound 22.34]
not listed: Puccinia recondita
< 20%: all other assays above

CCOC(c1sc2cc(Cl)ccc2c1Cl)C(C)NC(=O)c1cn(C)nc1C(F)F (stereo not drawn) [Compound 22.36]
< 20%: all assays above

COC(c1sc2cc(Cl)ccc2c1Cl)C(C)NC(=O)c1cn(C)cc1C(F)(F)F (stereo not drawn) [Compound 25.34]
< 20%: Pvrenophora teres | Septoria tritici | Uncinula Necator | Alternaria solani

COC(c1sc2cc(Cl)ccc2c1Cl)C(C)NC(=O)c1sc(C)nc1C(F)(F)F (stereo not drawn) [Compound 29.34]
< 20%: Pvrenophora teres | Septoria tritici | Uncinula Necator | Alternaria solani

COC(c1sc2ccc(Cl)cc2c1Cl)C(C)NC(=O)c1cccnc1Cl (stereo not drawn) [Compound 30.2]
< 20%: Pvrenophora teres | Septoria tritici | Alternaria solani | Botrytis cinerea

CCOC(c1sc2ccc(Cl)cc2c1Cl)C(C)NC(=O)c1cccnc1Cl (stereo not drawn) [Compound 30.4]
not listed: Puccinia recondita
< 20%: all other assays above

COC(CNC(=O)c1cccnc1Cl)c1sc2cc(Cl)ccc2c1Cl (stereo not drawn) [Compound 30.33]
< 20%: Pvrenophora teres | Septoria tritici | Uncinula Necator

COC(c1sc2cc(Cl)ccc2c1Cl)C(C)NC(=O)c1cccnc1Cl (stereo not drawn) [Compound 30.34]
< 20%: Pvrenophora teres | Septoria tritici | Uncinula Necator | Alternaria solani

COC(c1sc2ccc(Cl)cc2c1Cl)C(C)NC(=O)c1ccccc1C(F)(F)F (stereo not drawn) [Compound 33.2]
not listed: Puccinia recondita
< 20%: all other assays above

CCOC(c1sc2ccc(Cl)cc2c1Cl)C(C)NC(=O)c1ccccc1C(F)(F)F (stereo not drawn) [Compound 33.4]
< 20%: Pvrenophora teres | Septoria tritici | Uncinula Necator | Alternaria solani

COC(CNC(=O)c1ccccc1C(F)(F)F)c1sc2cc(Cl)ccc2c1Cl (stereo not drawn) [Compound 33.33]
< 20%: Pvrenophora teres | Septoria tritici | Uncinula Necator | Alternaria solani

COC(c1sc2cc(Cl)ccc2c1Cl)C(C)NC(=O)c1ccccc1C(F)(F)F (stereo not drawn) [Compound 33.34]
< 20%: Pvrenophora teres | Septoria tritici | Uncinula Necator | Alternaria solani

CCOC(c1sc2cc(Cl)ccc2c1Cl)C(C)NC(=O)c1ccccc1C(F)(F)F (stereo not drawn) [Compound 33.36]
< 20%: Pvrenophora teres | Septoria tritici | Uncinula Necator | Alternaria solani
